These are yes or no findings as the source states them, for the method shown. Some entries that bind do so weakly or less than the wild type.
T1: TL1A (UniProt O95150)
T1 sequence (looked up): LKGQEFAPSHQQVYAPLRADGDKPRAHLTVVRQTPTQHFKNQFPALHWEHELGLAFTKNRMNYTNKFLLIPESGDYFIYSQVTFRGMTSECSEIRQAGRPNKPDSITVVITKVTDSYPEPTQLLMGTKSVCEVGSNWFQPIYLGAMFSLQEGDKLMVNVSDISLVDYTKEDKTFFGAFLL


target: T1, TL1A; test: peptide selection, Example 48

| Binder | binding |
| --- | --- |
| LLGDCFAGFDNIWCEFLD [TLA26] | binds |
| KCNFNPWKAACG [TLA29] | binds |
| QTFWCYDDWHECSGKP [TLA30] | binds |
| LNHSCWWWDEWEECPHNV [TLA34] | binds |
| KVEYCYDDWHQCKQVQ [TLA37] | binds |
| DDSMCAWWDEWHECEHHS [TLA38] | binds |
| EYMYCYDDWYDC [TLA39] | binds |
| DYDVCWDLDFDRLYYCHPAE [TLA120] | binds |
| RWDVCWDYHADKLFFCNEDL [TLA121] | binds |
| DYDVCWDVDLDRLYYCEAPM [TLA122] | binds |
| EYEVCWDVHVHRLVFCNVPV [TLA123] | binds |
| KTDVCWDLLLDKLYFCDIDT [TLA125] | binds |
| RDDVCWDYNTDKLYFCGSNI [TLA126] | binds |
| DYDVCWDYDVDRLYYCDFPV [TLA127] | binds |
| NYDVCWDVSEDRLYYCDAPR [TLA128] | binds |
| DWDVCWDLLEDRLYYCEDPM [TLA129] | binds |
| EYDHCWDVSRAKLELCWEHN [TLA130] | binds |
| EYAVCWDEAQQKLVWCKDLN [TLA131] | binds |
| DYDVCWDIYEDRLFYCEMHV [TLA133] | binds |

| Binder | binding |
| --- | --- |
| KLDVCWDLDVDRLYFCDAPM [TLA134] | binds |
| DYDVCWDVLVDRLYYCDVPM [TLA135] | binds |
| DYDVCWDLHLDRLYYCHAYC [TLA136] | binds |
| DYDVCWDIDLDRLYYCDAGS [TLA138] | binds |
| DYDVCWDIDADRLYYCHAAM [TLA139] | binds |
| KYDVCWDDYLDILYYCNGPL [TLA140] | binds |
| HLDVCWDIDLDHLYYCDLGM [TLA141] | binds |
| MYDVCWDLEVDRLYYCEAPM [TLA142] | binds |
| EYDVCWDIDSDRLYLCVGLM [TLA143] | binds |
| DYDVCWDVHADRLYYCKEDI [TLA144] | binds |
| DYDVCWDLNLDRLYYCDSPM [TLA145] | binds |
| EYDVCWDVQNDRLYYCDAPE [TLA146] | binds |
| DYDVCWDYDVDRLYYCNFQS [TLA147] | binds |
| DYDVCWDYKIDHLYYCDGPV [TLA148] | binds |
| GYDVCWDYEEDRLFYCESPL [TLA149] | binds |
| DYDVCWDLDNDRLFYCDSAM [TLA150] | binds |
| KFHVCWDSHQDKLVYCSLKV [TLA290] | binds |
| LEFVCWDDDRGKLVFCAGHM [TLA291] | binds |
| GHEVCWDMHNEKLVFCRTHI [TLA293] | binds |

| Binder | binding |
| --- | --- |
| NKAVCWNYHQEKLEFCNSTM [TLA294] | binds |
| TYAVCWDFNAHKLVFCDDMM [TLA295] | binds |
| EYALCWVEAQEKLVWCKDLI [TLA296] | binds |
| DYAVCWVEDQGKLVWCNGVN [TLA297] | binds |
| DYAVCWDEAQEKLVWCNGLS [TLA298] | binds |
| EYAVCWVHSQEKLDWCTGSK [TLA299] | binds |
| EYAVCWNEARGKLEYCTALK [TLA300] | binds |
| DYAVCWDEHKQKLEFCRTFI [TLA301] | binds |
| EYTVCWDASNEKLYFCHYPL [TLA302] | binds |
| SLDVCWDHHLDKLTFCNLNM [TLA303] | binds |
| QLDVCWDDHYQKLYFCYARI [TLA304] | binds |
| SYDVCWDSRLTKLVYCNASN [TLA306] | binds |
| QYAVCWDEALEKLLWCKELH [TLA307] | binds |
| DYAVCWSEAQDKLEWCIGHN [TLA308] | binds |
| EYAVCWVEEHEKLLWCEGLN [TLA309] | binds |
| EYSVCWVVDQEKLVWCRSLH [TLA310] | binds |
| EYAVCWSEAQGKLEWCQGSN [TLA311] | binds |
| DYAVCWDVGLEKLVWCKGSL [TLA312] | binds |

target: EGFR (UniProt P00533); test: peptide screen, Example 48

| Binder | binding |
| --- | --- |
| FPDVCYWTVWGRECLLLP [EGA999] | binds |
| HPDGCYWTVWGRECLLPP [EGA1001] | binds |
| YSEVCWWEVWGRECFLRS [EGA1002] | binds |
| LPEDCWWAQWGRECFLPA [EGA1003] | binds |
| LNDPCYWTTWGKECLLPR [EGA1004] | binds |
| YEEHCGQFPTDWICTLIS [EGA1005] | binds |
| YEEHCWLFPSDWICTLMT [EGA1006] | binds |
| YEEHCWLFPTDWICTLVT [EGA1007] | binds |
| YAEHCWLFPSDWICTLLT [EGA1008] | binds |
| PESWCHTLYWNLQHCLSQE [EGA1010] | binds |
| LPEGCYWATWGKECLLQP [EGA1011] | binds |

From patent publication US20160046678A1 (ZYNGENIA, published 2016)
